Data from patent US12605350B2, “Composition for preventing, ameliorating, or treating disease caused by nitration of tyrosine in proteins comprising tyrosine as effective component” (INDUSTRY-ACADEMIC COOPERATION FOUNDATION GYEONGSANG …, priority 2020, dated 2026).

Legend:
[1] = bodyweight and food intake, chronic immobilization stress group fed with tyrosine-diet; assay type: in vivo, mouse; conditions: tyrosine-supplemented diet (181.2 mg/kg) vs normal diet, CIS 15 days
[2] = bodyweight and food intake, chronic immobilization stress with D-Tyr diet; assay type: in vivo, mouse; conditions: D-Tyr-containing diet (181 mg D-Tyr/kg AIN-93G), chronic stress 14 days
[3] = system: high-fat diet mouse model of type 2 diabetes; assay: high-fat diet mouse model of type 2 diabetes: bodyweight, food intake amount, blood glucose; assay type: in vivo; conditions: 3 months
Procedure: Twenty-seven C57BL/6 male mice (3-week old) were acclimated to the breeding condition for 1 week. […] Blood glucose was measured every week.

Row | SMILES | change in bodyweight [1] | food intake amount [1] | bodyweight [2] | food intake amount [2] | bodyweight change ([3]; HFD+L-Tyr (181 mg of L-tyrosine/kg) vs HFD) | food intake amount ([3]; ND, HFD, HFD+L-Tyr (181 mg of L-tyrosine/kg))
1 | N[C@@H](Cc1ccc(O)cc1)C(=O)O [tyrosine] | no change in bodyweight | no change in bodyweight or any difference in food intake amount | no difference in bodyweight and food intake amount | no difference in bodyweight and food intake amount | – | –
2 | N[C@@H](Cc1ccc(O)cc1)C(=O)O [L-tyrosine] | – | – | – | – | similar | almost no difference among different test groups
